Results are given in words; binding and its absence hold for the method and conditions named. Some results given as binding are weak or reduced against the parent protein; the word gives no strength. Each block holds one binder with its values, some of them ahead of it.
Legend:
Settings in all cases: remark: other sources report otherwise
[1] = target: T1, endogenous claudin-1 in Huh-7.5 hepatoma cells (human (endogenous in Huh-7.5)), O95832; test: non-reducing SDS-PAGE with immunoblot; Huh-7.5 cell lysate (PBS, 1% Triton-X100, 0.1% sodium deoxycholate, 0.1% SDS), 5 µg protein per well, blot with anti-claudin-1 (MH25)
T1 chain: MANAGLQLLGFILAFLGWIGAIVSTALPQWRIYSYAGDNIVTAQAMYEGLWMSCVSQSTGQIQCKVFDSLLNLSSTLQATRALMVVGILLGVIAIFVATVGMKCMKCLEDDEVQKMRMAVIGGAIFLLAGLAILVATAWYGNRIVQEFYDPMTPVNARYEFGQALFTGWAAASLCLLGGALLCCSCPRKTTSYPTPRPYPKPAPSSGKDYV

[2] = target: T2, recombinant, full-length human claudin-1 (human), O95832; test: AUC; claudin-1 in profoldin-8 micelles; sedimentation velocity, continuous c(s) distribution model (SEDFIT); both purified
T2 chain: T1 chain

[3] = target: T2, recombinant, full-length human …; test: SDS-PAGE (silver stain); claudin-1 solubilized in profoldin-8 and eluted from a nickel affinity column; both purified
[4] = target: T2, recombinant, full-length human …; test: SDS-PAGE with immunoblot; foscholine-10 extracted claudin-1, stained with an anti-hexahistidine tag antibody

binding [1]: binds
B1: endogenous claudin-1 in Huh-7.5 hepatoma cells, O95832 1-211 (protein)
chain: T1 chain

binding [2]: binds | binding [3]: binds | binding [4]: binds
B2: recombinant, full-length human claudin-1, O95832 1-211 (natural protein)
chain: T1 chain

Source: publication PMC3660353
